The campaign covered roughly 31,000 sequences. About 1,400 (4.5%) were called active.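 How the source made its calls: active means median seed-adjusted z-score above 1 or below -1; inactive means the rest.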 This is one part of the list.

This assay can be described thus: Novel Modifiers of Survival Motor Neuron (SMN) Protein: Gene Identification via Genome-wide siRNA Screen.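 Further: luminescence tracks full-length SMN protein made from the SMN2 reporter.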 The settings on record: HEK293T SMN2-luciferase reporter, siRNA knockdown, 72 h; actives lie on both sides. The method, boiled down: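 Steps: spot 1 pmol siRNA, add Lipofectamine RNAiMax in serum-free DMEM, seed HEK293T SMN2–luciferase reporter cells; incubate 72 h at 37 °C; add ONE-Glo; normalize luminescence to control siRNA, log10, MAD. Candidates: |MAD| > 1.0.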
A general note: In a reporter assay the amount or activity of a reporter protein is the signal.
GUUUCGAUUAUAAAGAUCATT against CYP2C19: the median seed-adjusted z-score is inactive: -0.0674.
As for AGAUAGCCGCUUACAGAAATT against NEFH, the median seed-adjusted z-score is inactive: 0.688.
Turning to GAGAAAGGCUUGUAUAGGATT against FKBP5, the median seed-adjusted z-score is inactive: -0.598.
On to CGGCAUUUGUAGUACUAAUTT against GPR155, for which the median seed-adjusted z-score is inactive: 0.0681.
Take GGAAAGUUGAUUUUUAUGATT against MS4A6E: the median seed-adjusted z-score is inactive: -0.341.
To UGAACCUUGUGAUAGAUGATT against SNRPG belongs active: -3.09; to CAAGCUAGAGAUUCGCUAUTT against CXXC1, inactive: -0.841.
For AAUCAUCGGUUAUAAACCATT against ZNF585B, the median seed-adjusted z-score is inactive: 0.158.
Turning to CAAUGGUCUUAAGCCCAUUTT against GLMN, the median seed-adjusted z-score was inactive: 0.
The value for GGAACGCAGUCGGAUCUCATT against RHOU was active: -1.44.
To AGACAUCAAGUCCCAUUAUTT against CIB1 belongs inactive: 0.14; to GUACAGGAAAGAUUUUAUATT against OTUD4, inactive: 0.167.
To GGCCUUUCACCAUCCAUGATT against MICAL2 belongs inactive: -0.0224; to GGAUUCAGACCGCAAAUAUTT against TPM2, inactive: 0.305; to AAACUUCACUGUUGCCUUUTT against NAPSA, inactive: -0.336.
Consider CAGUAUGCCUGAUCCAGUATT against PCM1, for which the median seed-adjusted z-score is inactive: -0.00218.
Consider GAUUAUCGAGGUACAUGUUTT against DNAJA4, for which the median seed-adjusted z-score is inactive: 0.145.
To CGGAGUUCAUUAUGCUGAATT against ELAC2 belongs inactive: 0.016; to CAACAAGUCUAACCUCAUUTT against ZNF154, inactive: 0.
To GACAGUCGGUUUUCCCAUUTT against LGALS3 belongs inactive: 0.14; to GGACUAAGAAUGAAGAGUUTT against ZSCAN16, inactive: -0.274; to GCAAUGAUUUAUACCAUGATT against ATP5B, inactive: 0.393.
On to GCAUGUACCUGGUAUCUCUTT against ITIH1, for which the median seed-adjusted z-score was inactive: 0.0403.
To GCCUCUCUGCAAUGCGUGATT against KLK14 belongs inactive: -0.0998; to GCUUAUACAUUCCGAUGAATT against PTPRZ1, active: 1.73; to GGCGAAGAGGGAUCAAGUATT against ZNF24, inactive: 0.388.
The value for GGGUGCCUAUCUAAGUGGATT against HSPB7 was inactive: -0.288; that for GGAAUCUGACCUAACCUUUTT against PDXDC1 was inactive: 0.665; that for GGCUUAGCUCUCAUGAUUATT against PCDHA8 was inactive: 0.
For the sequence CUUCAUCGAUAAUUCCACATT against ELOVL3, the median seed-adjusted z-score was inactive: 0.
Take CCAUGUUAAAGAUGGGUUUTT against DDX59: the median seed-adjusted z-score was inactive: -0.859.
The value for GUACCUUUCGAGAAGAUUATT against NADK was inactive: -0.201; that for GCCCAAAAGAGUCUAGUGATT against RREB1 was inactive: -0.414; that for GGCAACCACUCUUCACCAATT against B4GALT2 was inactive: -0.0367.
The value for CAAUGCAUUUAACUCGUUATT against SLC25A12 was inactive: -0.275; that for CCUCCUCAAAGACAACCGATT against EMR3 was inactive: 0.169.
The value for CUUGGUGCCUGGACACUAATT against CDC23 was inactive: 0.0112.
For GGUGGAAUCCUACUCAGAATT against UBE2R2, the median seed-adjusted z-score is inactive: 0.
To GUCUCAGCAUUGAUCGAUATT against AGTR1 belongs inactive: 0.106.
The value for CUCCGUUCCUGGUGUAUAATT against CLIC2 was inactive: -0.0124; that for GAACUGCAGCAAUCACAAATT against HYAL1 was inactive: -0.163; that for GGCUUCUUGUCCAACCCUATT against CILP was inactive: 0.0436.
With GACCGGACUCUGACACCAATT against MSC, the median seed-adjusted z-score was inactive: -0.208.
For AGGAAAUUCUGGGUCUUGATT against MSRA, the median seed-adjusted z-score was inactive: -0.0316.
In the case of GAUUCACAUUAACCAUAAATT against CRHBP, the median seed-adjusted z-score was inactive: -0.0443.
As for GCCCUGUGCUAUCAGAGGATT against SPIB, the median seed-adjusted z-score is inactive: 0.0726.
To ACCUGUCCUUCGGCCUGUATT against HAS3 belongs inactive: -0.179; to GGGUAGCUUUGAGGAGGAUTT against SNX33, inactive: -0.246; to CGUGGACCACUAUCCCAUUTT against RNF123, inactive: 0.
The value for CGCAUCCAAGAGUACCUUUTT against ZNF229 was inactive: -0.497.
The value for CCAAGAAGAUGAGGCUAAATT against GABRA2 was inactive: -0.272; that for GAAUAUAUCUUAUCGCUAATT against TAAR1 was inactive: 0.0724; that for ACAUUGUGGUAGCCUUGUATT against LYN was inactive: -0.178.
With GGAGAAGAUUGACAGCAUUTT against STX17, the median seed-adjusted z-score is inactive: 0.00965.
In the case of GGUUACUGGUAGGAAUAAATT against TGFA, the median seed-adjusted z-score was inactive: -0.22.
To CGAUUAGUGUCAAAGGCUUTT against MMP7 belongs inactive: 0.0315; to CCUUGAUAGAUGUUACCAATT against ASAH1, inactive: 0.421; to CCACAAUAUCUCUAACAGATT against GUCY1A2, inactive: -0.186.
To CGCAUUUGGUGGACCCAAATT against CDKN1B belongs inactive: 0.244; to GGUCUGUUCUUCUUACAGATT against PRKCB1, inactive: 0.0463; to CUGCAGCUUUUAUCACAAATT against SLC25A33, inactive: -0.0252.
Regarding UUAUGACAGUUGAAGCUUATT against NDUFC2, the median seed-adjusted z-score was inactive: -0.0481.
The value for GGAAGGUUUUUCAUUGACATT against KCTD16 was inactive: 0.00219.
Turning to CCUGCCUACUGGAUGCUUATT against XBP1, the median seed-adjusted z-score was inactive: 0.387.
Consider GGCCUUCGUGUACAUCAAUTT against SUV39H1, for which the median seed-adjusted z-score is inactive: -0.0775.
Regarding CUCUGACUGUCACGAAUUATT against MTMR2, the median seed-adjusted z-score is inactive: 0.495.
GAAUCCGGACAAUCAGAUATT against NFIX: the median seed-adjusted z-score is inactive: 0.481.
The value for GCAGGUUUAUCAAACAGAUTT against IHPK3 was inactive: -0.173.
As to GAGGGACUAUUUCACGAAATT against PARD3B, the median seed-adjusted z-score is inactive: 0.306.
As for GGAAAUCAUCUAUCGGUAUTT against ALOX15, the median seed-adjusted z-score is inactive: 0.0369.
With GCAAAACCCGUUCGACAAATT against FZR1, the median seed-adjusted z-score was inactive: 0.729.
Regarding GGACAUGAGGAUAUAAGAATT against NTN4, the median seed-adjusted z-score is inactive: 0.462.
On to UCUUUUCUCUGUCAGCGAATT against PLA2G2E, for which the median seed-adjusted z-score is inactive: -0.37.
On to GGCAGUACUAUACAACUGATT against USH2A, for which the median seed-adjusted z-score is inactive: 0.0673.
To GGAGCUCCUGUAUAAAGAATT against TOR3A belongs inactive: 0.225; to CAGCUGGGUUGGACUGAUATT against CYBRD1, inactive: 0.623.
With CAACUGGAUGAACUACUAATT against DNAJC1, the median seed-adjusted z-score is inactive: 0.134.
Turning to GGAGUUCUGUAACUCACUUTT against SLC38A2, the median seed-adjusted z-score is active: -1.04.
GCCGUGACUUCAUAGAGGATT against SETDB1: the median seed-adjusted z-score is inactive: 0.0517.
CGGCUAUGCGAGGAUCAAATT against KIF20A: the median seed-adjusted z-score is inactive: 0.906.
On to CCCUCGACAGAGUCAGUUUTT against NPC1, for which the median seed-adjusted z-score was inactive: -0.195.
The value for GUAAGAAGAGUGAAAGCAATT against ZNF276 was inactive: 0.318; that for UGGUUAAAGCGGAACCAGATT against NDUFA5 was inactive: -0.0429.
Turning to CGUUUGAUAAGAACAACUATT against SLC37A1, the median seed-adjusted z-score was inactive: -0.102.
For GCAGGUCACUGUACAGUCUTT against PCDHA11, the median seed-adjusted z-score was inactive: 0.582.
Turning to AGUUCGAGCUGGAGAACGATT against CHST12, the median seed-adjusted z-score is inactive: 0.
UCAGUGCCCUUGUAUCAAATT against CYP4F2: the median seed-adjusted z-score is inactive: -0.387.
To GGAGUGCGAUGCAAAGAUATT against EMR1 belongs inactive: 0.255; to CCAUAGUCAAAGGAACUAUTT against IKZF5, inactive: 0.399; to CCCUGAUGGUGCUAACUGATT against ATF6, inactive: 0.26.
Take GUCCAACUAUGUGCUCAAATT against PGLYRP1: the median seed-adjusted z-score was inactive: -0.559.
To CAACGACUGCCUUCCCGAUTT against JAG2 belongs inactive: -0.234; to CCAUCGUACCUGUUACCAATT against KRIT1, inactive: -0.447.
The value for ACAUGUUUUUAGAAUUGCUTT against TST was inactive: 0.
The value for AGAGAAACCAAGUAUUUGATT against GSTM2 was inactive: -0.464.
UGCGAGUAGUGACCACGAATT against TCEB3C: the median seed-adjusted z-score is inactive: 0.382.
The value for GAGCGAGUUUUACCUGAUATT against ABCA10 was inactive: -0.104; that for GCCUAAAUCCCAAAUCGAATT against CXCL11 was inactive: -0.135.
For GGACUUAGGAGGGCAGGAATT against ARFRP1, the median seed-adjusted z-score was inactive: -0.329.
To CCACCUAAGCAAUAUAGCATT against VPS54 belongs inactive: -0.128; to GGAUCUGAACUCUGAUAUATT against LDHAL6B, inactive: -0.192.
Consider CAGUCGAACAGGAUGAUGATT against ATG16L1, for which the median seed-adjusted z-score is inactive: -0.187.
To GCCCAAUACUUGCAAGUGATT against KCNA2 belongs active: -1.03; to CCCUCUAUGAUGCAACCUATT against CFL1, inactive: 0.685.
Turning to CUAUAGCAGGGAUUCGUCATT against TDRD5, the median seed-adjusted z-score was inactive: -0.0961.
For GAAUUUUGUGGUUACACUATT against POLR1D, the median seed-adjusted z-score is inactive: -0.0409.
Turning to GUCCAAGAGUUGUUUAGAATT against RPUSD4, the median seed-adjusted z-score is inactive: -0.0264.

(Values after PubChem BioAssay AID1347426 (Functional Genomics Laboratory (NCATS/FGL), 2020).)
